PubChem BioAssay AID652272, Drosophila RNAi Screening Center – 2013

Assay: 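Genes whose knock-down decreases or increases Hedgehog reporter output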 (primary screen)
Cells: Drosophila clone 8 (Cl8) cells
Reagent: long dsRNA against Drosophila genes
Detection: 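Firefly light from a Hedgehog-responsive ptc promoter reporter and Renilla reference light, both read on a plate reader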
Scale: firefly Hh reporter signal: higher = more ptc reporter light; Renilla reference signal: higher = more Renilla control light
Rule for the call: 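Called a hit if the two-replicate mean z-score lies below -2 or above +3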
Calls: active = hit: reporter lowered or raised; inactive = not a hit
The deposit covers about 21,000 reagents; below is an unselected part of those with a known target gene and a result. Of all reagents, 503 (2.4%) are marked active. 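Raw plate light values, not normalised; calls rest on replicate z-scores that were not deposited; hits include reporter decreases as well as increases.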 A number with no mark means an inactive call. The numbers tell different reagents against one gene apart. Names joined by + are all predicted targets of the reagent. Reagent sequences are not shown. The record does not give: the amount of reagent, the time to read-out.

target gene	reagent no.	firefly Hh reporter signal, replicate 1	firefly Hh reporter signal, replicate 2	Renilla reference signal, replicate 1	Renilla reference signal, replicate 2
CG34459	1	63056	58741	795	3632
CG3517	1	5.54e5	86074	32084	2290
Dp1	1	1.38e5	1.07e5	4996	4304
CG12909	1	61452	38517	1777	3219
nudC	1	1.22e5		2280	3453
nudC	2	1.22e5		2553	3753
CG12343	1	64554	31616	1832	2976
Tsp42Eq	1	76394	49500	1719	4413
CG5191	1	1.77e5	1.70e5	7174	5926
CG5191	2	5.81e5	88816	33104	2450
CG34161	1	4.82e5	2.37e5	22625	8522
TwdlJ	1	1.07e5	1.42e5	2545	3019
sds22	1	85178	85142	2252	2124
CG9215	1	58710	1.57e5	1789	6940
CG30393	1	99698	82714	2377	6182
sn	1	83888	1.97e5	3078	6946
CG14227	1	6.50e5	1.15e5	4864	4864
mRpL45	1	5.24e5	1.07e5	25968	3386
GABA-B-R2	1	1.85e5	1.03e5	7088	3980
Usp7	1	5.28e5	2.18e5	26614	5074
Usp7	2	1.04e5	3.59e5	3482	14224
CG5103	1	1.46e5		1841	3745
CG6833	1	85238	50902	3584	1864
CG3149	1	90715	88544	2214	2341
CG14034	1	82859	46720	2567	4674
mei-217 + mei-218	1	74530	1.63e5	1431	6979
Cyp6a21	1	1.17e5	62230	2509	4761
CG13675	1	65096 (active)	86229	2876	5784
CG13675	2	16923	18229	3224	1018
CG4073	1	79841	1.08e5	2369	3078
CG4956	1	5.44e5	1.03e5	29216	2916
Prp31	1	84933	36477	4524	1652
Pgant3	1	91661	68761	3485	2753
CG33303	1	95623	56681	2547	5138
bol	1	90629	2.06e5	3014	9365
bol	2	63766	73104	3328	3242
bol	3	79936	73328	4006	2978
CG7304	1	95667		3667	2833
CG15247	1	88133	2.00e5	2762	7560

Part of the list above in another layout:
CG13675 #1 | firefly Hh reporter signal, replicate 1: 65096 (active); firefly Hh reporter signal, replicate 2: 86229; Renilla reference signal, replicate 1: 2876; Renilla reference signal, replicate 2: 5784
CG13675 #2 | firefly Hh reporter signal, replicate 1: 16923; firefly Hh reporter signal, replicate 2: 18229; Renilla reference signal, replicate 1: 3224; Renilla reference signal, replicate 2: 1018
CG4073 | firefly Hh reporter signal, replicate 1: 79841; firefly Hh reporter signal, replicate 2: 1.08e5; Renilla reference signal, replicate 1: 2369; Renilla reference signal, replicate 2: 3078
